Data published in patent US20160315271A1, “ORGANIC TRANSISTOR, COMPOUND, ORGANIC SEMICONDUCTOR MATERIAL FOR NON-LIGHT-EMITTING ORGANIC SEMICONDUCTOR DEVICE, MATERIAL FOR ORGANIC TRANSISTOR, COATING SOLUTION FOR NON-LIGHT-EMITTING ORGANIC SEMICONDUCTOR DEVICE, AND ORGANIC SEMICONDUCTOR FILM FOR NON-LIGHT-EMITTING ORGANIC SEMICONDUCTOR DEVICE” (FUJIFILM Corporation, priority 2014, published 2016).

Experiments:
[1] = FET characteristics of organic transistor element of Example 2 (semiconductor active layer formed using compound alone, bottom gate/bottom contact); details: source-drain −80 V; for Carrier mobility: compound alone cast from toluene, bottom gate/bottom contact, gate 20 V to −100 V, normal pressure/nitrogen atmosphere; for Threshold voltage shift after repeated driving: compound alone, repeatedly driven 100 times, gate +20 V to −100 V
[2] = FET characteristics of organic transistor element of Example 3 (semiconductor active layer formed using compound and PαMS binder together); details: for Carrier mobility: compound 1 mg with 1 mg PαMS binder in toluene, bottom gate/bottom contact; for Threshold voltage shift after repeated driving: compound with PαMS binder, repeatedly driven 100 times
[3] = FET characteristics of organic transistor element of Example 4 (bottom gate/top contact, octyltrichlorosilane-treated SiO2); details: for Carrier mobility: W=5 mm, L=80 μm, octyltrichlorosilane-treated SiO2 370 nm; for Threshold voltage shift after repeated driving: repeatedly driven 100 times
[4] = listed as comparative compound 1
[5] = listed as comparative compound 2

Structure (SMILES)	Carrier mobility [1]	Threshold voltage shift after repeated driving [1]	Carrier mobility [2]	Threshold voltage shift after repeated driving [2]	Carrier mobility [3]	Threshold voltage shift after repeated driving [3]	Carrier mobility [1, 4]	Carrier mobility [2, 4]	Carrier mobility [3, 4]	Carrier mobility [1, 5]	Carrier mobility [2, 5]	Carrier mobility [3, 5]
CCCCCCCCc1cc2cc3ccc4cc5cc(CCCCCCCC)n(C)c5cc4c3cc2n1C [Compound 3]	1.0 × 10^−3 cm^2/Vs	A (|Vafter−Vbefore|≦5 V)										
CCCCCCCCCCCCc1cc2cc3ccc4cc5cc(CCCCCCCCCCCC)sc5cc4c3cc2s1 [Compound 5]	2.6 × 10^−2 cm^2/Vs	A (|Vafter−Vbefore|≦5 V)	7.3 × 10^−3 cm^2/Vs	A (|Vafter−Vbefore|≦5 V)	8.9 × 10^−3 cm^2/Vs	A (|Vafter−Vbefore|≦5 V)						
CCCCCCCCc1ccc(-c2cc3cc4ccc5cc6cc(-c7ccc(CCCCCCCC)cc7)sc6cc5c4cc3s2)cc1 [Compound 11]	1.6 × 10^−2 cm^2/Vs	A (|Vafter−Vbefore|≦5 V)	1.5 × 10^−2 cm^2/Vs	A (|Vafter−Vbefore|≦5 V)	6.5 × 10^−3 cm^2/Vs	A (|Vafter−Vbefore|≦5 V)						
CCCCCCCCc1ccc(-c2cc3cc4ccc5cc6cc(-c7ccc(CCCCCCCC)s7)sc6cc5c4cc3s2)s1 [Compound 16]	9.4 × 10^−2 cm^2/Vs	A (|Vafter−Vbefore|≦5 V)	1.2 × 10^−2 cm^2/Vs	A (|Vafter−Vbefore|≦5 V)								
CCCCCCCCc1csc(-c2cc3cc4ccc5cc6cc(-c7cc(CCCCCCCC)cs7)sc6cc5c4cc3s2)c1 [Compound 24]	6.6 × 10^−2 cm^2/Vs	A (|Vafter−Vbefore|≦5 V)										
Cc1c(C)n(-c2ccccc2)c2c1ccc1c3ccc4c(C)c(C)n(-c5ccccc5)c4c3ccc12 [compound 1, reference compound]	5.8 × 10^−5 cm^2/Vs	C (|Vafter−Vbefore|>10 V)	4.0 × 10^−5 cm^2/Vs	C (|Vafter−Vbefore|>10 V)	4.8 × 10^−5 cm^2/Vs	C (|Vafter−Vbefore|>10 V)	low carrier mobility	low carrier mobility	low carrier mobility			
c1ccc(-n2c3ccccc3c3cc4ccc5cc6c7ccccc7n(-c7ccccc7)c6cc5c4cc32)cc1 [compound 2, reference compound]	3.3 × 10^−5 cm^2/Vs	C (|Vafter−Vbefore|>10 V)	5.8 × 10^−5 cm^2/Vs	C (|Vafter−Vbefore|>10 V)	6.4 × 10^−5 cm^2/Vs	C (|Vafter−Vbefore|>10 V)				low carrier mobility	low carrier mobility	low carrier mobility
